This data set can be described thus: general procedure: Boc solid-phase peptide synthesis; MBHA resin; HBTU/DIEA. As to conditions: whole synthesis, scale 0.14 mmol.

In turn, [β-Ala^28 ]hPACAP(1-38)NH2 showed an isolated mass of 286 mg. Further, the “final HPLC purity” value (analytical HPLC) is over 99%.

These data come from US6242563 (dated 2001).
